From paper PMC7090004, “IL28A protein homotetramer structure is required for autolysosomal degradation of HCV-NS5A in vitro” (Cell Death & Disease, 2020)
Results are given in words; binding and its absence hold for the method and conditions named. In cells and extracts the contact can be indirect. Some binding calls cover weakened binding; strength is not graded here.

Sequences of proteins named here, by UniProt entry; tags and fusion partners are left off. Residues count along the entry.
UniProt P13473, residues 29-410: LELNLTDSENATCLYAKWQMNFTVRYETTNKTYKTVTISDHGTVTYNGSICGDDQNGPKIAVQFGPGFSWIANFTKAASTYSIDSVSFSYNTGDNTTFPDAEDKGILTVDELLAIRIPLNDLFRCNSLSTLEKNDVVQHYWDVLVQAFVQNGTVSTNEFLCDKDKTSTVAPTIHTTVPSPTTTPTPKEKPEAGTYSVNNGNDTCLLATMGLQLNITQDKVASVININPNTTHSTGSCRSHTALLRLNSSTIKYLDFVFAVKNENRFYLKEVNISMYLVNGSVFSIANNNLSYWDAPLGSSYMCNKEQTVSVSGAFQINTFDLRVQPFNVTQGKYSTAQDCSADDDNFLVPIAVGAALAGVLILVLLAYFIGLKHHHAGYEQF

Key:
Assay in all cases: co-IP
[1] = molecular target: LAMP2 (human (endogenous in HepG2)) (UniProt P13473)
[2] = molecular target: HCV NS5A protein (Hepatitis C virus, J4L6S (1b)) (UniProt O92972)
[3] = molecular target: p62 (human (endogenous in HepG2)) (UniProt Q13501)

Molecule: p62 (from UniProt Q13501 1-440)
- binding [1]: binds
- binding [2]: binds

B1: Interferon lambda-2 (IL28A), wild type (natural protein, human, UniProt Q8IZJ0 26-200, looked up)
chain: VPVARLHGALPDARGCHIAQFKSLSPQELQAFKRAKDALEESLLLKDCRCHSRLFPRTWDLRQLQVRERPMALEAELALTLKVLEATADTDPALVDVLDQPLHTLHHILSQFRACIQPQPTAGPRTRGRLHHWLYRLQEAPKKESPGCLEASVTFNLFRLLTRDLNCVASGDLCV
notes: also called WT IL28A; IL28A overexpression construct
- binding [3]: binds
- binding [1]: binds
- binding [2]: binds
